Results are given in words; binding and its absence hold for the method and conditions named. Some entries that bind do so weakly or less than the wild type. Tags and fused reporters may be left off the sequences shown.
T1: FtsA (E. coli) (UniProt P0ABH0)
T1 sequence: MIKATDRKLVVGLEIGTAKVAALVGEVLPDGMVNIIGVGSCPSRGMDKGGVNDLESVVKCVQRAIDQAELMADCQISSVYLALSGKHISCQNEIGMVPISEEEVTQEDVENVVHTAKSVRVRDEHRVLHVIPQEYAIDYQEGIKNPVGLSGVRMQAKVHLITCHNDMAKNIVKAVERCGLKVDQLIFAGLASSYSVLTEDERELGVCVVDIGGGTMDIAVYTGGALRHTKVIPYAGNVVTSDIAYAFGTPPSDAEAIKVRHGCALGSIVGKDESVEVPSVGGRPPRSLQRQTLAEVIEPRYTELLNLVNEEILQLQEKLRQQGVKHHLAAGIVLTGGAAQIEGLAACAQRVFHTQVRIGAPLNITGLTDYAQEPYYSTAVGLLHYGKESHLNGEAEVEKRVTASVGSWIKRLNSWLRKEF

Sequences of proteins named here, by UniProt entry; tags and fusion partners are left off.
UniProt P0A9A6: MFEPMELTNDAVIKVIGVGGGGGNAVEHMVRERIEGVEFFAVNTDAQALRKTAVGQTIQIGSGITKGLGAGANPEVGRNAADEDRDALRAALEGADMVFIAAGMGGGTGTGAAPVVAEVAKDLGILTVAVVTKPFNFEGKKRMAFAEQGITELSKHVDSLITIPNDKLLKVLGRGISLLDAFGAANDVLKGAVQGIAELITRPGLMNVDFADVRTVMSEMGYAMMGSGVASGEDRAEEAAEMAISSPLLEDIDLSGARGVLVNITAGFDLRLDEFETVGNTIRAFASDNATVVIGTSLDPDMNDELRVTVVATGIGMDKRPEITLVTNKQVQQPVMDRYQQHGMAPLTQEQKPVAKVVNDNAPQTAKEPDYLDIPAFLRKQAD

T2: ^N-pepPBP1b–GFP–H3H4 fusion (α, 1–63, M46L) (E. coli) (UniProt P02919)
T2 sequence: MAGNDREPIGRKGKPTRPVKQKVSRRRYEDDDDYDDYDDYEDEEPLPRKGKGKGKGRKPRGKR

B1: ^N-pepPBP1b (residues 1–64) peptide with N-terminal 6× His tag and C-terminal cysteine, Cy5-labelled (peptide, UniProt P02919 1-64)
peptide: MAGNDREPIGRKGKPTRPVKQKVSRRRYEDDDDYDDYDDYEDEEPMPRKGKGKGKGRKPRGKRGC
modifications: sulfo-cyanine5 (Cy5) maleimide on the added C-terminal cysteine
B2: mScarlet–FtsA fusion (protein, UniProt P0ABH0 1-420)
chain: T1 sequence

How the values were obtained:
FtsA (E. coli) = biological target: T1, FtsA (E. coli); assay: TIRF microscopy of FtsZ recruitment by FtsA to supported lipid bilayers (competition); FtsA (0.4 μM) and Alexa Fluor 488-labelled FtsZ (1.25 μM) self-organised on supported lipid bilayers in 50 mM Tris-HCl pH 7.4, 150 mM KCl, 5 mM MgCl2 with 4 mM ATP and 4 mM GTP; Cy5-labelled His-tagged peptide (0.4 μM) added during imaging; FtsZ signal at the membrane followed as a proxy; both purified
[1] = biological target: T2, ^N-pepPBP1b–GFP–H3H4 fusion (α, 1–63, M46L) (E. coli); assay: two-hybrid; POLAR two-hybrid assay in E. coli cells: peptide–GFP–H3H4 bait on a heterologous PopZ focus (0.2% L-arabinose), mScarlet–FtsA prey (250 µM IPTG), LB, 30 °C, fluorescence microscopy

Molecule | binding (FtsA (E. coli)) | binding [1]
Alexa Fluor 488-labelled FtsZ (from UniProt P0A9A6 1-383) | binds | –
B1 | binds | –
B2 | – | binds

Reference: paper PMC13423804
